Library screening results

From ChEMBL document CHEMBL3988442, “University of Dundee, Small-Polar-MMV Screening Library” (2021).

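Viability assay of Plasmodium falciparum sporozoites; the read-out is not stated. The concentration is filed as 10 mM, unlikely as a test dose, so the dose is not known. Higher reads as lower viability (inferred: compounds with an IC50 in retests scored well above the rest). Strong results were mostly tested again. Of about 34,000 compounds tested this way, about 280 (0.84%) reached 50% or more in at least one test.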

Each number is a percent effect as filed. The controls that fix the scale are not given in the record; negative values are as filed. The compounds are a random part of those screened. Two or more numbers in one place are separate tests of the same structure; such repeats can differ widely.

| # | Compound | percent effect |
|---|---|---|
| 1 | `Cc1noc(CN2CCC(c3ccnn3CCO)CC2)n1` | -8.306% |
| 2 | `CCN(CCNC(=O)c1ccccc1OCCOC)C1CC1` | 1.909% |
| 3 | `CC(C)c1nc(CN2CCN(CC(O)c3ccccc3)CC2)no1` (stereo unspecified) | -47.41% and -1.952% and -35.7% |
| 4 | `Cc1nnc(NC(=O)NCC(C)N2CCOCC2)s1` (stereo unspecified) | -8.214% |
| 5 | `CC(C)n1nc2c(cc1=O)CN(Cc1nc3ccccc3o1)CC2` | 2.962% |
| 6 | `O=C(O)C(F)(F)F.[H][C@@]12CCC(=O)N(CCOC)[C@@]1([H])CCN2Cc1c(C)noc1C` | -0.5199% |
| 7 | `CCc1ccc(C(=O)N2CC[C@H](Oc3cccnc3C)[C@@H](O)CC2)cc1` | 12.55% |
| 8 | `CC(C)Oc1ccc2c(NC(=O)CN(C)C)nn(CC(F)(F)F)c2c1` | -17.9% and -19.54% |
| 9 | `Cc1cc(C(=O)NC2CCc3c(ccc(=O)n3CC(C)C)C2)no1` (stereo unspecified) | 6.586% |
| 10 | `CC(C)NC(=O)N1CCC2(CC1)COc1ccccc1S(=O)(=O)N(C)C2` | 2.544% |
| 11 | `O=C(O)C(F)(F)F.[H][C@@]12COC[C@]1(COCC)CN(Cc1cccc(OC)c1)C2` | 5.113% |
| 12 | `CCc1c(O)n(C(C)CC)c(SCC(=O)c2ccccc2)nc1=O` (stereo unspecified) | -3.349% |
| 13 | `Cc1nc(NC(=O)OC(C)(C)C)sc1C(=O)O` | -4.116% |
| 14 | `CCOc1ncccc1CNC(=O)Nc1ccccc1` | 6.921% |
| 15 | `CCCN1CCC=C(C2c3nc[nH]c3CCN2C(=O)c2ccco2)C1` (stereo unspecified) | -6.308% |
| 16 | `CN(C)[C@@H]1CN(C(=O)c2cc3ccc(F)cc3[nH]2)C[C@H]1O` | -6.484% |
| 17 | `Cc1nccc(NCc2cncc3c2CCN(S(C)(=O)=O)C3)n1.Cl` | 2.836% |
| 18 | `CC1c2ncc(Cn3cncn3)n2CCN1C(=O)c1ccsc1` (stereo unspecified) | 12.65% |
| 19 | `O=C(O)C(F)(F)F.O=C(O)C(F)(F)F.O=C1NC2(CCN(Cc3ccc(F)cc3)CC2)CC1c1ccncc1` (stereo unspecified) | -9.246% |
| 20 | `[H][C@@]12CCN(C3CCOCC3)C[C@@]1([H])O[C@H](C(=O)N1CCCC1)C2` | 11.84% |
| 21 | `C[S+]([O-])CCNC(=O)Nc1cc(F)ccc1-n1cccn1` (stereo unspecified) | -5.438% |
| 22 | `CNc1nc(C2CCCN(C(=O)CNC(C)=O)C2)nc2c1CN(C)CC2` (stereo unspecified) | 5.079% |
| 23 | `O=C(O)C(F)(F)F.O=C(O)C(F)(F)F.[H][C@@]12CN(Cc3ccc(C)s3)CCC[C@]1(C(=O)O)CN(CC1CC1)C2` | 5.592% |
| 24 | `NC(=O)COc1cccc(C(=O)Nc2cnc3n2CCCC3)c1` | 4.031% |
| 25 | `CCOC(=O)CNC(=O)C1OC(c2ccccc2)=NN1C(C)=O` (stereo unspecified) | 0.9036% |
| 26 | `O=C(CSc1ccccc1Cl)NS(=O)(=O)c1ccc2c(c1)OCCO2` | 1.484% |
| 27 | `Cn1ncc2c(=O)[nH]c(CN3CCCC3CC3CCCCC3)nc21` (stereo unspecified) | 0.4075% |
| 28 | `CC(C)COCCNC(=O)NC1CCCN(c2cnn(C)c2)C1` (stereo unspecified) | -6.842% |
| 29 | `Cc1cc(CCC(=O)O)nc(C2CCCN2c2ccnc(C)n2)n1` (stereo unspecified) | 12.39% |
| 30 | `O=C(N[C@H]1CCCC[C@@H]1O)c1ccc(-c2nc3ccccc3[nH]2)cc1` | 13.15% |
| 31 | `Cc1noc(C)c1CC(=O)N1CCN(Cc2cscn2)CC1` | 1.423% |
| 32 | `Cn1cncc1C(=O)N1CCOC2(COCCN(CC3CC3)C2)C1.O=C(O)C(F)(F)F` (stereo unspecified) | 2.14% |
| 33 | `CNc1nc(CNC(=O)Nc2cccc(F)c2)cs1` | -3.258% |
| 34 | `Cc1nc(C)n(CC2CCCN(Cc3nc(-c4ccco4)no3)C2)n1` (stereo unspecified) | 0.9804% |
| 35 | `Cc1ccccc1OCC(=O)NCC(c1ccc(N(C)C)cc1)N(C)C` (stereo unspecified) | 7.252% |
| 36 | `CCCc1n[nH]c(C2CN(C(=O)CCc3cscn3)CCO2)n1` (stereo unspecified) | 8.162% |
| 37 | `CC[C@H]1CN(C(=O)CCn2c(C)cccc2=O)CC[C@@]1(C)O` | 7.368% |
| 38 | `Cc1noc(C)c1C(=O)N1CCCC(c2c(C)c(=O)nc3n2CCC3)C1` (stereo unspecified) | 7.72% |
| 39 | `CC(C)S(=O)(=O)CCN1CCN(C(C#N)c2ccccc2)CC1` (stereo unspecified) | -53.39% |
| 40 | `O=C(NCC1CC(=O)N(CCc2ccccc2)C1)c1ccon1` (stereo unspecified) | -10.47% |
| 41 | `Cn1cc(CN2CCOC3(CCCN(C(=O)c4ccco4)C3)C2)cn1.O=C(O)C(F)(F)F` (stereo unspecified) | -3.272% |
| 42 | `CN(Cc1ccncc1)C1COC2(CCN(Cc3cccs3)CC2)C1.O=C(O)C(F)(F)F.O=C(O)C(F)(F)F.O=C(O)C(F)(F)F` (stereo unspecified) | 2.867% |
| 43 | `CCn1ncc(S(=O)(=O)N[C@@H]2CC[C@@H](n3ccnc3C)[C@@H]2O)c1C` | 2.007% |
| 44 | `O=C(O)C(F)(F)F.O=C(O)C(F)(F)F.[H][C@]12CCN(C(=O)c3ccc4ncccc4c3)C[C@@]1([H])OCCN(C)C2` | -4.003% |
| 45 | `COc1ccc(CCC2CCCCN2)cc1OC` (stereo unspecified) | 4.304% |
| 46 | `Cn1cnc(S(=O)(=O)NCCCN2CCCC2)c1Cl` | 2.347% |
| 47 | `CC1(C(=O)N2CCOCC2)CN(Cc2c[nH]cn2)CCO1` (stereo unspecified) | 3.131% |
| 48 | `COc1cc(N2CCC3(CCCN(C(=O)c4cnccn4)C3)C2)ncn1.O=C(O)C(F)(F)F` (stereo unspecified) | -16.21% |
| 49 | `O=C(c1cc(C2CC2)[nH]n1)N1CCN(Cc2ccsc2)CC1` | 18.63% |
| 50 | `Cc1cccc(CN2CC3(CCN(S(=O)(=O)C4CC4)CC3)OCC2=O)n1.O=C(O)C(F)(F)F` | -9.158% and -22.91% and 2.719% |
| 51 | `CCCn1ccnc1CN1CCC(Oc2cccc(F)c2)(C(=O)O)CC1` | -7.135% |
| 52 | `O=C(CNC(=O)c1cnc2ccccc2c1O)NCCn1ccnc1` | -10.99% |
| 53 | `CCN(CC)C1CCN(C(=O)NCc2nncn2CC)CC1` | -7.353% |
| 54 | `CC(C)c1ncc2c(n1)CN(Cc1cccc(C(N)=O)c1)CC2` | 3.617% |
| 55 | `Cc1ncsc1C(=O)N1CCCC(c2cc(C(F)F)n3ncnc3n2)C1` (stereo unspecified) | -1.374% |
| 56 | `Cc1ccc2c(c1)C(NC(=O)N(C)C)CC21CCN(C)CC1.O=C(O)C(F)(F)F` (stereo unspecified) | 2.698% |
| 57 | `O=C(O)C(F)(F)F.O=C(O)C(F)(F)F.[H][C@@]12CCN(Cc3cccs3)C[C@]1([H])[C@@H](CN(C)Cc1ccco1)OC2` | -46.43% |
| 58 | `Cc1nc(C2CCCN2C(=O)COCc2ccccc2)no1` (stereo unspecified) | 4.7% |
| 59 | `CCn1ncc(CN2CCC(c3ncc(Cl)cc3S(C)(=O)=O)CC2)c1C` | 0.9625% |
| 60 | `O=C(O)C(F)(F)F.O=C([C@H]1CCCO1)N1CC[C@H](O)[C@@H]1Cc1ccncc1` | -6.369% |
| 61 | `Cc1cc(C)n(CC2CN(Cc3nc(-c4ccoc4)no3)CCO2)n1` (stereo unspecified) | 20.48% |
| 62 | `Cc1nnc(NC(=O)NCc2ccc(F)cc2)s1` | -1.534% |
| 63 | `CC(Cn1cccn1)NCc1ccc(Cl)s1` (stereo unspecified) | 12.9% |
| 64 | `OC1CCN(c2ccc(CNc3nc4ccccc4o3)cc2F)CC1` | 7.182% and -38.44% and -19.08% |
| 65 | `CCC1(c2ccc(NS(=O)(=O)N(C)C)cc2)CCC(=O)NC1=O` (stereo unspecified) | 4.115% |
| 66 | `Cc1cc(Oc2ccccc2)nc(C2CCCCN2)n1` (stereo unspecified) | 8.137% |
| 67 | `COC(=O)CN(Cc1ccccc1C)C(=O)COCC1CC1` | 4.561% |
| 68 | `COc1cc(F)ccc1C(C(=O)O)N(C)CCN1CCCC1` (stereo unspecified) | 14.21% |
| 69 | `CCCc1nc(CN2CCCC2Cn2cncn2)cs1` (stereo unspecified) | 7.484% |
| 70 | `CCOc1cc(C)nc(N2CCN(Cc3nccn3C)CC2)n1` | 0.4479% |
| 71 | `Cc1ccc(OCCC(=O)N2CCCC(n3nc(C)nc3C)C2)cc1` (stereo unspecified) | -2.733% |
| 72 | `[H][C@@]12CCN(Cc3cccc(C)n3)C[C@@]1([H])O[C@H](C)C2` | -6.54% |
| 73 | `COc1ccc(N2CCCN(CC(=O)N3CCNC(=O)C3)CC2)cc1` | -6.563% |
| 74 | `CCCn1ccc2ccc(NC(=O)N(C)CCOC)cc21` | -7.554% |
| 75 | `CC(=O)N(C)Cc1nn(C)c2c1CN(Cc1ccsc1)C2.O=C(O)C(F)(F)F.O=C(O)C(F)(F)F` | -7.105% |
| 76 | `CCC(NC(=O)c1ccoc1)c1ccccc1OCC(=O)N1CCCC1` (stereo unspecified) | -3.788% and -7.042% and -1.335% |
| 77 | `COc1ccc(CN2CCCCC2c2n[nH]cc2-c2cc(C)no2)cc1.Cl` (stereo unspecified) | -16.67% and -10.2% and 12.32% |
| 78 | `CC1CCCN(C(=O)CCc2cccnc2)C1` (stereo unspecified) | 3.536% |
| 79 | `COc1ccc(S(=O)(=O)N2CCC(S(C)(=O)=O)CC2)cc1C` | -1.453% |
| 80 | `Cc1[nH]c2c(C)ccc(C)c2c1CC(=O)NCc1csc(N(C)C)n1` | -33.6% |
| 81 | `CCCn1cc(C(=O)NCCC(=O)NC2CCCCC2)c(C)n1` | -2.193% |
| 82 | `COCCN1CCN(C(=O)c2ccncc2F)Cc2cccnc21` | 15.79% |
| 83 | `O=C(Nc1cccc(CNCc2cccnc2)c1)C1CCCC1` | -9.205% |
| 84 | `CCCN1CCC(N(Cc2ncc(C)o2)C(C)=O)C1` (stereo unspecified) | 3.922% |
| 85 | `O=C(c1cn(CCN2CCCCC2)nn1)N1CCCO1` | -15.22% |
| 86 | `C[C@]1(O)CCN(Cc2cccnc2)C[C@@H]1Oc1cccc(F)c1` | 2.845% |
| 87 | `C1CC(c2noc(C3CC3)n2)N(Cc2nc(C3CC3)no2)C1` (stereo unspecified) | 1.545% |
| 88 | `COCCCNC(=O)c1c(C)noc1C(C)C` | 2.012% |
| 89 | `CC(=O)Nc1nc(C(=O)Nc2ccc(F)cc2)cs1` | -17.11% |
| 90 | `COCCC(=O)N1CCC2(COCc3cnc(N4CCOCC4)nc32)C1` (stereo unspecified) | -7.036% |
| 91 | `CCN1CCCc2cc(-c3cncn3C(C)CN3CCOCC3)ccc21.Cl` (stereo unspecified) | 0.9687% |
| 92 | `Cc1ccc(F)cc1NC(=O)NCC(C)N1CCOCC1` (stereo unspecified) | 12.18% |
| 93 | `CN(Cc1ccco1)Cc1cncc2c1CCN(S(C)(=O)=O)C2.Cl.Cl` | -1.855% |
| 94 | `CC(C)c1nnc2n1CCN(CCC(=O)N1CCc3ccccc31)C2` | 3.74% |
| 95 | `COCC1CN(C(=O)c2cccc(C)n2)Cc2nccn2C1.O=C(O)C(F)(F)F` (stereo unspecified) | -4.08% |

The first 7 entries again:

* Cc1noc(CN2CCC(c3ccnn3CCO)CC2)n1 : -8.306%
* CCN(CCNC(=O)c1ccccc1OCCOC)C1CC1 : 1.909%
* CC(C)c1nc(CN2CCN(CC(O)c3ccccc3)CC2)no1 (stereo unspecified) : -47.41% and -1.952% and -35.7%
* Cc1nnc(NC(=O)NCC(C)N2CCOCC2)s1 (stereo unspecified) : -8.214%
* CC(C)n1nc2c(cc1=O)CN(Cc1nc3ccccc3o1)CC2 : 2.962%
* O=C(O)C(F)(F)F.[H][C@@]12CCC(=O)N(CCOC)[C@@]1([H])CCN2Cc1c(C)noc1C : -0.5199%
* CCc1ccc(C(=O)N2CC[C@H](Oc3cccnc3C)[C@@H](O)CC2)cc1 : 12.55%